{"source": "patent US20260151517A1", "about": "“SOMATOSTATIN RECEPTOR-TARGETING RADIOPHARMACEUTICALS AND USES THEREOF” (Nuclidium AG, priority 2024, published 2026)", "key": {"HEK-SST2 cells [1]": {"system": "HEK-SST2 cells", "assay": "In vitro cellular uptake and internalization", "format": "cell-based", "settings": "37° C., 0.25 pmol/mL"}, "HEK-SST2 cells [2]": {"system": "HEK-SST2 cells", "assay": "Dissociation experiments (fate of surface-bound radiotracer)", "format": "cell-based"}, "[3]": {"settings": "10 min at 37° C. in DMEM after 2 hours at 4° C."}, "[4]": {"settings": "20 min at 37° C. in DMEM after 2 hours at 4° C."}, "[5]": {"settings": "30 min at 37° C. in DMEM after 2 hours at 4° C."}, "[6]": {"settings": "60 min at 37° C. in DMEM after 2 hours at 4° C."}, "[7]": {"settings": "120 min at 37° C. in DMEM after 2 hours at 4° C."}, "[8]": {"settings": "240 min at 37° C. in DMEM after 2 hours at 4° C."}}, "note": "Values joined by “and” are separate entries in the source; they are usually repeats but may differ in a detail not shown here. Equal values may be shown once. Part of at least one peptide drawing is inferred or uncertain, most often the ends. Where a SMILES comes first, the peptide text is derived from it. Bridges are numbered along the chain shown (N, C = ends). [ ]: non-standard residue; d: D form. The star is where a group is joined. X2 = O=C(O)CN1CCN(CC(=O)O)CCN([C@H](CCC(=O)*)C(=O)O)CC1; dPhe(4-NHCONH2) = NC(=O)Nc1ccc(C[C@@H](N)C(=O)O)cc1; Phe(4-Cl) = N[C@@H](Cc1ccc(Cl)cc1)C(=O)O", "data": [{"compound": "C[C@@H](O)[C@@H]1NC(=O)[C@H](CCCCN)NC(=O)[C@@H](Cc2ccc(NC(N)=O)cc2)NC(=O)[C@H](Cc2ccc(O)cc2)NC(=O)[C@H](NC(=O)[C@H](Cc2ccc(Cl)cc2)NC(=O)CC[C@H](C(=O)O)N2CCN(CC(=O)O)CCN(CC(=O)O)CC2)CSSC[C@@H](C(=O)N[C@H](Cc2ccc(O)cc2)C(N)=O)NC1=O", "note": "[[^64Cu]Cu-NODAGA-LM3, metal not drawn] (X2-[Phe(4-Cl)][dC]Y[dPhe(4-NHCONH2)]KTC[dY]-NH2; disulfide 2-7)", "values": [{"measurement": "Cell-associated fraction [%] Internalized", "setting": "HEK-SST2 cells [1]; 30 min", "value": "2.7 ± 0.5", "unit": "%"}, {"measurement": "Cell-associated fraction [%] Surface-bound", "setting": "HEK-SST2 cells [1]; 30 min", "value": "27.4 ± 0.4", "unit": "%"}, {"measurement": "Cell-associated fraction [%] Internalized", "setting": "HEK-SST2 cells [1]; 60 min", "value": "4.6 ± 0.3", "unit": "%"}, {"measurement": "Cell-associated fraction [%] Surface-bound", "setting": "HEK-SST2 cells [1]; 60 min", "value": "33.0 ± 6.0", "unit": "%"}, {"measurement": "Cell-associated fraction [%] Internalized", "setting": "HEK-SST2 cells [1]; 120 min", "value": "7.3 ± 0.2", "unit": "%"}, {"measurement": "Cell-associated fraction [%] Surface-bound", "setting": "HEK-SST2 cells [1]; 120 min", "value": "37.4 ± 4.2", "unit": "%"}, {"measurement": "Cell-associated fraction [%] Internalized", "setting": "HEK-SST2 cells [1]; 240 min", "value": "12.1 ± 0.2", "unit": "%"}, {"measurement": "Cell-associated fraction [%] Surface-bound", "setting": "HEK-SST2 cells [1]; 240 min", "value": "37.2 ± 4.9", "unit": "%"}, {"measurement": "Fate of surface-bound: Free", "setting": "HEK-SST2 cells [2]; [3]", "value": "12.3 ± 0.8", "unit": "%"}, {"measurement": "Fate of surface-bound: Internalized", "setting": "HEK-SST2 cells [2]; [3]", "value": "1.2 ± 0.1", "unit": "%"}, {"measurement": "Fate of surface-bound: Surface-bound", "setting": "HEK-SST2 cells [2]; [3]", "value": "79.7 ± 4.0", "unit": "%"}, {"measurement": "Fate of surface-bound: Free", "setting": "HEK-SST2 cells [2]; [4]", "value": "19.0 ± 0.1", "unit": "%"}, {"measurement": "Fate of surface-bound: Internalized", "setting": "HEK-SST2 cells [2]; [4]", "value": "5.2 ± 1.2", "unit": "%"}, {"measurement": "Fate of surface-bound: Surface-bound", "setting": "HEK-SST2 cells [2]; [4]", "value": "70.9 ± 0.3", "unit": "%"}, {"measurement": "Fate of surface-bound: Free", "setting": "HEK-SST2 cells [2]; [5]", "value": "21.6 ± 1.6", "unit": "%"}, {"measurement": "Fate of surface-bound: Internalized", "setting": "HEK-SST2 cells [2]; [5]", "value": "4.5 ± 0.6", "unit": "%"}, {"measurement": "Fate of surface-bound: Surface-bound", "setting": "HEK-SST2 cells [2]; [5]", "value": "58.3 ± 4.5", "unit": "%"}, {"measurement": "Fate of surface-bound: Free", "setting": "HEK-SST2 cells [2]; [6]", "value": "25.9 ± 1.9", "unit": "%"}, {"measurement": "Fate of surface-bound: Internalized", "setting": "HEK-SST2 cells [2]; [6]", "value": "6.9 ± 0.3", "unit": "%"}, {"measurement": "Fate of surface-bound: Surface-bound", "setting": "HEK-SST2 cells [2]; [6]", "value": "62.0 ± 6.2", "unit": "%"}, {"measurement": "Fate of surface-bound: Free", "setting": "HEK-SST2 cells [2]; [7]", "value": "25.0 ± 1.4", "unit": "%"}, {"measurement": "Fate of surface-bound: Internalized", "setting": "HEK-SST2 cells [2]; [7]", "value": "12.1 ± 0.6", "unit": "%"}, {"measurement": "Fate of surface-bound: Surface-bound", "setting": "HEK-SST2 cells [2]; [7]", "value": "52.4 ± 5.7", "unit": "%"}, {"measurement": "Fate of surface-bound: Free", "setting": "HEK-SST2 cells [2]; [8]", "value": "26% and 26.1 ± 0.8%"}, {"measurement": "Fate of surface-bound: Internalized", "setting": "HEK-SST2 cells [2]; [8]", "value": "16% and 15.6 ± 0.6%"}]}]}
